Reference: patent publication US11709165B2 (KAWASAKI GAKUEN EDUCATIONAL FOUNDATION, priority 2017, dated 2023)
HELM strings list residues between dots; [ac] is acetyl, [am] amide, other brackets name non-standard units.

Assay: peptide made by a vendor
Details: whole synthesis

Row | Substance | purity (crude or final not stated)
1 | PEPTIDE1{N.Q.Q.L.K.V.G.I.L.H.L.G.S.R.Q.K.K.I.R.I.Q.L.R.S.Q}$$$$V2.0 | 99% or more
2 | PEPTIDE1{I.S.Q.T.P.G.I.N.L.D.L.G.S.G.V.K.V.K.I.I.P.K.E.E.H}$$$$V2.0 | 99% or more
